The list is a part of this screen's results and no random one: it is rich in T/C values a quarter to a half above the control, in often repeated tests (any T/C) and in doses without a T/C. Further doses and runs are listed elsewhere. T/C: endpoint of the treated group in % of that of the vehicle group. Some doses have a count of surviving animals in place of a T/C: the source files T/C as zero there, which appears to mark a toxic dose or a test without result, not a measured value. Some survivor counts are full or nearly so, which does not show that the dose was tolerated: survival well below the control is almost never listed, so the zero probably covers shortened survival too. Survivors were counted at the toxicity check, usually on the fifth day, unless a day is given; later deaths do not show. Schedule codes are those of the source, taken here to give the interval after Q, in days (D) or hours (H), and the number of doses after X. Some entries hold several experiments; the values are given in rising order. For survival time, the PubChem record calls one and a half times the control and up active, and a quarter to a half above the control has no call in these data; cut-offs in other NCI protocols can differ. Some T/C values are followed by the survivors on the day toxicity was checked, most often the fifth; without a count, all were alive then.
Tested on: CD2F1 mice, L1210 leukemia ip, survival T/C
Test: NCI In Vivo Anticancer Drug Screen. Data for tumor model L1210 Leukemia (intraperitoneal) in CD2F1 (CDF1) mice
Conditions: higher T/C = longer survival
How it was run: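 Antitumor effect is scored in animals hosting a serially transplanted tumor. Values compare compound-dosed animals against vehicle-only controls as a simple quotient.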

[1] = T/C endpoint: mean survival time, dose: 400.0 mg/kg/injection, schedule: Q04DX003 (ip), vehicle: saline
[2] = T/C endpoint: mean survival time, dose: 200.0 mg/kg/injection, schedule: Q04DX003 (ip), vehicle: saline with Tween-80
[3] = T/C endpoint: mean survival time, dose: 400.0 mg/kg/injection, schedule: Q04DX003 (ip), vehicle: saline with Tween-80
[4] = T/C endpoint: mean survival time, dose: 200.0 mg/kg/injection, schedule: Q04DX003 (ip), vehicle: saline
[5] = T/C endpoint: mean survival time, dose: 300.0 mg/kg/injection, schedule: Q01DX001 (ip), vehicle: saline
[6] = T/C endpoint: mean survival time, dose: 200.0 mg/kg/injection, schedule: Q01DX009 (ip), vehicle: saline
[7] = T/C endpoint: mean survival time, dose: 200.0 mg/kg/injection, schedule: Q01DX009 (ip), vehicle: saline with Tween-80
[8] = T/C endpoint: mean survival time, dose: 400.0 mg/kg/injection, schedule: Q01DX009 (ip), vehicle: saline with Tween-80
[9] = T/C endpoint: mean survival time, dose: 150.0 mg/kg/injection, schedule: Q01DX001 (ip), vehicle: other
[10] = T/C endpoint: mean survival time, dose: 300.0 mg/kg/injection, schedule: Q01DX001 (ip), vehicle: other
[11] = T/C endpoint: mean survival time, dose: 100.0 mg/kg/injection, schedule: Q01DX009 (ip), vehicle: saline with Tween-80
[12] = T/C endpoint: mean survival time, dose: 100.0 mg/kg/injection, schedule: Q01DX001 (ip), vehicle: saline
[13] = T/C endpoint: mean survival time, dose: 100.0 mg/kg/injection, schedule: Q04DX003 (ip), vehicle: saline with Tween-80

With `O=NN(CCCl)C(=O)NCCc1cccc[n+]1[O-]` the T/C (T/C endpoint: mean survival time, dose: 12.5 mg/kg/injection, schedule: Q01DX001 (ip), vehicle: water) was 142 % of control.
`COc1ccc(C2NCCc3cc(OC)c(OC)cc32)cc1OC` (stereo not drawn) was tested, and the survivor count (T/C endpoint: mean survival time, dose: 200.0 mg/kg/injection, schedule: Q01DX009 (ip), vehicle: water) was 1 of 6.
`COc1ccc(C2=CSc3ccccc3N2)cc1` was tested, and the survivor count (T/C endpoint: mean survival time, dose: 400.0 mg/kg/injection, schedule: Q04DX002 (ip), vehicle: saline with Tween-80) was 1 of 3.
For `CCC(C)(O)C(C)N(C)C1CCCCC1` (stereo not drawn), the survivor count [1] was 0 of 4 and 1 of 4.
With `O=C(O)CC1C=CCC1` (stereo not drawn) the survivor count [2] was 0 of 3 and the survivor count [3] was 0 of 3.
In the case of `CCCCCCCCCCCCNC(=O)c1cc[n+](C)cc1`, the survivor count (T/C endpoint: mean survival time, dose: 25.0 mg/kg/injection, schedule: Q01DX009 (ip), vehicle: saline) is reported as 2 of 6, the survivor count (T/C endpoint: mean survival time, dose: 50.0 mg/kg/injection, schedule: Q01DX009 (ip), vehicle: saline) is reported as 0 of 6 and the survivor count (T/C endpoint: mean survival time, dose: 100.0 mg/kg/injection, schedule: Q04DX003 (ip), vehicle: saline) is reported as 1 of 6. The survivor count [4] was 0 of 6 and the survivor count [1] was 0 of 6.
`C[C@H](C[P+](c1ccccc1)(c1ccccc1)c1ccccc1)[C@](OC(=O)c1ccccc1)(C(=O)c1ccccc1)c1ccccc1` was tested, and the survivor count (T/C endpoint: mean survival time, dose: 10.0 mg/kg/injection, schedule: Q01DX001 (ip), vehicle: saline with Tween-80) was 3 of 6 and the survivor count (T/C endpoint: mean survival time, dose: 20.0 mg/kg/injection, schedule: Q01DX001 (ip), vehicle: saline with Tween-80) was 0 of 6.
With `CS(=O)(=O)OCCNc1ccc([N+](=O)[O-])cc1` the survivor count (T/C endpoint: mean survival time, dose: 512.0 mg/kg/injection, schedule: Q01DX001 (ip), vehicle: saline) was 0 of 6.
For `CC(C)(Nc1nc2c(ncn2C2OC(CO)C(O)C2O)c(=O)[nH]1)P(=O)(O)O` (stereo not drawn), the survivor count (T/C endpoint: median survival time, dose: 200.0 mg/kg/injection, schedule: Q01DX005 (ip), vehicle: water) was 0 of 6.
`CN(Cc1ccccc1)CC1(CO)CC=CCC1` (stereo not drawn) was tested, and the survivor count [5] was 2 of 6.
In the case of `CCCCCC/C=N/[N+](C)(C)C`, the survivor count (T/C endpoint: mean survival time, dose: 100.0 mg/kg/injection, schedule: Q01DX009 (ip), vehicle: saline) is reported as 0 of 3 and the survivor count [6] is reported as 0 of 3.
With `Clc1cc(Cl)c(C[N+]23CN4CN(CN(C4)C2)C3)cc1Cl` the survivor count [7] was 1 of 6, the survivor count [8] was 0 of 6 and the survivor count [3] was 0 of 6.
In the case of `O=C1NC(=O)NC(C(=O)O)N1`, the survivor count (T/C endpoint: mean survival time, dose: 200.0 mg/kg/injection, schedule: Q01DX009 (ip), vehicle: DMSO) is reported as 1 of 6 and the survivor count (T/C endpoint: mean survival time, dose: 400.0 mg/kg/injection, schedule: Q01DX009 (ip), vehicle: DMSO) is reported as 1 of 6.
With `O=c1[nH]nc(OCc2ccccc2)c2ncn(Cc3ccccc3)c12` the survivor count (T/C endpoint: mean survival time, dose: 25.0 mg/kg/injection, schedule: Q01DX005 (ip), vehicle: other) was 3 of 3 and the survivor count (T/C endpoint: mean survival time, dose: 50.0 mg/kg/injection, schedule: Q01DX005 (ip), vehicle: other) was 3 of 3.
For `COC(=O)C1C(=O)C(C(=O)OC)C(C)N(C)C1C` (stereo not drawn), the survivor count (T/C endpoint: mean survival time, dose: 75.0 mg/kg/injection, schedule: Q01DX001 (ip), vehicle: other) was 1 of 6, the survivor count [9] was 0 of 6 and the survivor count [10] was 0 of 6.
With `CC1(CO)C2CCC(CC2)C1CO` (stereo not drawn) the survivor count (T/C endpoint: mean survival time, dose: 400.0 mg/kg/injection, schedule: Q01DX001 (ip), vehicle: saline with Tween-80) was 1 of 6.
With `CCOc1ccc(Nc2c3ccccc3nc3ccccc23)cc1` the T/C [11] was 131 % of control [5 of 6 alive] and the survivor count [8] was 0 of 6.
`CCCCC(=O)/C=C/Sc1n[nH]c(=O)[nH]c1=O` was tested, and the survivor count (T/C endpoint: mean survival time, dose: 100.0 mg/kg/injection, schedule: Q01DX005 (ip), vehicle: distilled water + Tween-80) was 0 of 6 and the survivor count (T/C endpoint: mean survival time, dose: 200.0 mg/kg/injection, schedule: Q01DX005 (ip), vehicle: distilled water + Tween-80) was 0 of 6.
For `Cc1cc(C)c2c(C#N)cn(-c3cccc(Cl)c3)c2n1`, the T/C [4] was 130 % of control and the survivor count [1] was 1 of 3.
In the case of `Nc1nc2ncc(CNc3ccc(C(=O)NC(CCC(=O)O)C(=O)O)cc3)nc2c(=O)[nH]1.[NH-]C1CCCCC1[NH-].[Pt+2]` (stereo not drawn), the T/C (T/C endpoint: median survival time, dose: 200.0 mg/kg/injection, schedule: Q04DX003 (ip), vehicle: saline) is reported as 128 % of control.
In the case of `COC(=O)C[N+]1(C)C2CCC1CC(Cl)C2` (stereo not drawn), the survivor count (T/C endpoint: mean survival time, dose: 50.0 mg/kg/injection, schedule: Q01DX001 (ip), vehicle: saline) is reported as 1 of 3 and the survivor count [12] is reported as 0 of 3.
In the case of `NCc1cc(O)c(O)c(O)c1`, the T/C (T/C endpoint: median survival time, dose: 37.5 mg/kg/injection, schedule: Q01DX005 (ip), vehicle: saline) is reported as 128 % of control, the T/C (T/C endpoint: median survival time, dose: 108.0 mg/kg/injection, schedule: Q01DX005 (ip), vehicle: saline) is reported as 146 % of control and the T/C (T/C endpoint: median survival time, dose: 150.0 mg/kg/injection, schedule: Q01DX005 (ip), vehicle: saline) is reported as 130 % of control. For the same compound, the T/C (T/C endpoint: median survival time, dose: 180.0 mg/kg/injection, schedule: Q01DX005 (ip), vehicle: saline) was 146 % of control, the T/C (T/C endpoint: median survival time, dose: 300.0 mg/kg/injection, schedule: Q01DX005 (ip), vehicle: saline) was 132 % of control and the T/C (T/C endpoint: median survival time, dose: 500.0 mg/kg/injection, schedule: Q01DX005 (ip), vehicle: saline) was 143 % of control. The T/C (T/C endpoint: median survival time, dose: 600.0 mg/kg/injection, schedule: Q01DX005 (ip), vehicle: saline) was 137 and 145 % of control [5 of 6 alive] and the T/C (T/C endpoint: median survival time, dose: 833.33 mg/kg/injection, schedule: Q01DX005 (ip), vehicle: saline) was 142 % of control [5 of 6 alive].
In the case of `COc1cc2c(cc1OC)C13CCN4CC5=CCOC(CC(=O)O)C(C5CC41)C3N2` (stereo not drawn), the survivor count [9] is reported as 3 of 6, the survivor count [10] is reported as 3 of 6 and the survivor count [5] is reported as 1 of 6.
In the case of `CN(N=O)C(=O)NCC1OC(OC2(CO)OC(CNC(=O)N(C)N=O)C(O)C2O)C(O)C(O)C1O` (stereo not drawn), the T/C [6] is reported as 125 and 129 % of control, the T/C (T/C endpoint: mean survival time, dose: 300.0 mg/kg/injection, schedule: Q01DX009 (ip), vehicle: saline) is reported as 137 % of control and the T/C (T/C endpoint: mean survival time, dose: 400.0 mg/kg/injection, schedule: Q01DX009 (ip), vehicle: saline) is reported as 148 % of control.
With `Cc1ccc(N=Nc2ccc(N(C)C)cc2)c2cccnc12` the survivor count [7] was 6 of 6 and the survivor count [8] was 5 of 6.
For `C[n+]1c2ccccc2c(N=[N+]=[N-])c2ccccc21`, the survivor count [12] was 0 of 6, the survivor count (T/C endpoint: mean survival time, dose: 200.0 mg/kg/injection, schedule: Q01DX001 (ip), vehicle: saline) was 0 of 6 and the survivor count (T/C endpoint: mean survival time, dose: 400.0 mg/kg/injection, schedule: Q01DX001 (ip), vehicle: saline) was 0 of 6.
In the case of `CCCCCCCCCc1ccc(OCCOCCOCCOCCOCCOCCOCCOCCOCCOC(C)N2CCCC2=O)cc1` (stereo not drawn), the survivor count (T/C endpoint: mean survival time, dose: 50.0 mg/kg/injection, schedule: Q01DX009 (ip), vehicle: saline with Tween-80) is reported as 2 of 6, the survivor count [11] is reported as 0 of 6 and the survivor count [2] is reported as 0 of 6.
In the case of `Clc1c(Br)nc(Br)nc1C(Cl)(Cl)Cl`, the survivor count (T/C endpoint: mean survival time, dose: 25.0 mg/kg/injection, schedule: Q04DX003 (ip), vehicle: saline with Tween-80) is reported as 4 of 6, the survivor count (T/C endpoint: mean survival time, dose: 50.0 mg/kg/injection, schedule: Q04DX003 (ip), vehicle: saline with Tween-80) is reported as 2 of 6 and the survivor count [13] is reported as 0 of 6.
In the case of `O=C(NNc1ccccc1)C(F)(F)F`, the survivor count [11] is reported as 2 of 6, the survivor count (T/C endpoint: mean survival time, dose: 200.0 mg/kg/injection, schedule: Q04DX003 (ip), vehicle: acetone) is reported as 4 of 6 and the survivor count (T/C endpoint: mean survival time, dose: 400.0 mg/kg/injection, schedule: Q04DX003 (ip), vehicle: acetone) is reported as 0 of 6.
For `Cc1ccccc1C(C)NC1=NCCO1` (stereo not drawn), the survivor count [13] was 0 of 6, the survivor count [2] was 0 of 6 and the survivor count [3] was 0 of 6.
For `NNC(=O)c1ccc([N+](=O)[O-])o1`, the survivor count (T/C endpoint: mean survival time, dose: 75.0 mg/kg/injection, schedule: Q01DX009 (ip), vehicle: saline with Tween-80) was 3 of 6, the survivor count (T/C endpoint: mean survival time, dose: 150.0 mg/kg/injection, schedule: Q01DX009 (ip), vehicle: saline with Tween-80) was 0 of 6 and the survivor count [2] was 5 of 6. For the same compound, the survivor count [3] was 3 of 6.

Source: PubChem BioAssay AID256 (DTP/NCI, 2004)
